{"source": "PubChem BioAssay AID743454 (Peter MacCallum Cancer Centre, 2014)", "aim": "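Knock-downs lowering viability or raising caspase 3/7 activity in vorinostat-treated resistant cells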 (primary screen)", "system": "human HCT116-VR colon cancer cells, selected for vorinostat resistance", "knock-down reagent": "siRNA pool against human genes, 40 nM siRNA pool", "time to read-out": "vorinostat for 24 h, read-out about 72 h after transfection", "challenge": "vorinostat at 2.5 µM final", "measurement": "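Cell viability by CellTiter-Fluor and caspase 3/7 activity by luminescence, each scaled to mock wells per plate, duplicates averaged, then robust z-scored over all plates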", "scale": "viability robust z-score: higher = more viable cells than screen typical; caspase robust z-score: higher = more caspase 3/7 activity than screen typical", "active means": "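a knock-down is a hit when classed RV1 or RV2 for lowered viability, or CA1 or CA2 for caspase activation; those lethal without drug were dropped; hits were retested singly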", "note": "Here is an unselected part of about 18,000 deposited reagents. In the full data, 450 (2.5%) are marked active. 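Single biological run; no consistent viability z cut-off exists, so the class columns, not z-scores, define the calls.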 Reagent sequences are not shown."}
{"gene": "ZNF471", "viability hit class": "no change", "caspase hit class": "no change", "viability robust z-score": 1.78, "caspase robust z-score": -0.32, "Outcome": "inactive"}
{"gene": "NOSTRIN", "viability hit class": "no change", "caspase hit class": "no change", "viability robust z-score": -1.4, "caspase robust z-score": 3.56, "Outcome": "inactive"}
{"gene": "FAT2", "viability hit class": "no change", "caspase hit class": "no change", "viability robust z-score": 0.45, "caspase robust z-score": 0.06, "Outcome": "inactive"}
{"gene": "GPX4", "viability hit class": "no change", "caspase hit class": "CA2 (caspase activation)", "viability robust z-score": -0.44, "caspase robust z-score": 6.26, "Outcome": "active"}
{"gene": "AMZ2", "viability hit class": "no change", "caspase hit class": "no change", "viability robust z-score": 0.73, "caspase robust z-score": -0.6, "Outcome": "inactive"}
{"gene": "GABRE", "viability hit class": "no change", "caspase hit class": "no change", "viability robust z-score": -0.48, "caspase robust z-score": -0.86, "Outcome": "inactive"}
{"gene": "GRK7", "viability hit class": "no change", "caspase hit class": "no change", "viability robust z-score": -0.58, "caspase robust z-score": -0.89, "Outcome": "inactive"}
{"gene": "TAX1BP1", "viability hit class": "no change", "caspase hit class": "no change", "viability robust z-score": 0.18, "caspase robust z-score": -1.31, "Outcome": "inactive"}
{"gene": "VXN", "viability hit class": "no change", "caspase hit class": "no change", "viability robust z-score": -0.95, "caspase robust z-score": -0.26, "Outcome": "inactive"}
{"gene": "SNRPN", "viability hit class": "no change", "caspase hit class": "no change", "viability robust z-score": -0.3, "caspase robust z-score": -0.24, "Outcome": "inactive"}
{"gene": "BLK", "viability hit class": "no change", "caspase hit class": "no change", "viability robust z-score": 0.55, "caspase robust z-score": 3.17, "Outcome": "inactive"}
{"gene": "KMT2C", "viability hit class": "no change", "caspase hit class": "no change", "viability robust z-score": -0.8, "caspase robust z-score": 0.58, "Outcome": "inactive"}
{"gene": "PERP", "viability hit class": "no change", "caspase hit class": "no change", "viability robust z-score": 0.64, "caspase robust z-score": 0.3, "Outcome": "inactive"}
{"gene": "SIRAL1", "viability hit class": "no change", "caspase hit class": "no change", "viability robust z-score": 0.12, "caspase robust z-score": -0.96, "Outcome": "inactive"}
{"gene": "CWF19L1", "viability hit class": "no change", "caspase hit class": "no change", "viability robust z-score": -0.34, "caspase robust z-score": 0.06, "Outcome": "inactive"}
{"gene": "COPB1", "viability hit class": "no change", "caspase hit class": "no change", "viability robust z-score": -3.57, "caspase robust z-score": 4, "Outcome": "inactive"}
{"gene": "FBXL17", "viability hit class": "no change", "caspase hit class": "no change", "viability robust z-score": -1.83, "caspase robust z-score": -1.04, "Outcome": "inactive"}
{"gene": "MNDA", "viability hit class": "no change", "caspase hit class": "no change", "viability robust z-score": 0.42, "caspase robust z-score": 1.36, "Outcome": "inactive"}
{"gene": "PCGF3", "viability hit class": "no change", "caspase hit class": "no change", "viability robust z-score": -2.71, "caspase robust z-score": 0.47, "Outcome": "inactive"}
{"gene": "DDX46", "viability hit class": "no change", "caspase hit class": "no change", "viability robust z-score": -2.36, "caspase robust z-score": 1.98, "Outcome": "inactive"}
{"gene": "SKOR1", "viability hit class": "no change", "caspase hit class": "no change", "viability robust z-score": 0.04, "caspase robust z-score": -0.76, "Outcome": "inactive"}
